Experimental data published in PubChem BioAssay AID1487 (National Center for Advancing Translational Sciences (NCATS), 2009).
Some of the results follow. The main result of the screen is listed elsewhere. These columns were measured beside it and carry no call. Compounds called inactive in the main read-out are mostly missing here. The note in brackets gives the kind of curve behind each potency; many fits are weak.

Test: qHTS Assay for Modulators of Lamin A Splicing
Details: HeLa LMNA splicing GFP/RFP minigene ratio, 48 h
How it was run: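 S3 HeLa cells stably expressing lamin A-EGFP splicing minigene plus DsRed2, 600 cells/well, 48 h compound exposure at 37C. Laser-scanning cytometry; analysed as GFP (500-530 nm)/RFP (575-640 nm) total intensity ratio; 0.5% DMSO vehicle.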

[1] = measured here: RFP viability control channel
[2] = measured here: GFP splicing reporter channel

Row | SMILES | AC50 [1] | AC50 [2]
1 | Cc1ccc(C2CC(c3cccs3)=NN2C(=O)CSC2=NN3CCCC(=O)N=C3S2)cc1 (stereo not drawn) | 12.6 µM [rising, partial curve, poor fit] | –
2 | COc1ccc(C[C@H](N)C(=O)N[C@@H]2[C@H](O)[C@H](n3cnc4c(N(C)C)ncnc43)O[C@@H]2CO)cc1 | 1.58 µM [falling, full curve] | 0.224 µM [falling, full curve]
3 | CCCC(=O)Nc1nc(-c2ccccc2)ns1 | 25.1 µM [rising, single point] | 17.8 µM [rising, single point]
4 | O=C(N/N=C\c1ccc(Cl)s1)c1cccs1 | 31.6 µM [rising, single point] | –
5 | Cc1ccc(NCC(=O)N/N=C/c2ccc(OC(=O)c3ccco3)cc2)cc1 | – | 31.6 µM [rising, single point]
6 | CC(=O)NC1=NN(C(C)=O)C2(CCCC2)S1 | – | 0.0158 µM [falling, full curve, poor fit]
7 | O=C(Cc1ccccc1F)NCC1(N2CCOCC2)CCCCC1 | 2.82 µM [rising, partial curve, poor fit] | 0.126 µM [rising, partial curve, poor fit]
8 | CC(C)(C)N/N=C/c1cc(Cl)cc([N+](=O)[O-])c1O | 12.6 µM [rising, single point] | –
9 | Cc1ccc(Cl)cc1NC(=O)COCc1cc(-c2ccco2)on1 | 0.02 µM [falling, full curve, poor fit] | –
10 | CCCC(c1nnnn1Cc1ccco1)N1CCN(c2cc(Cl)ccc2C)CC1 (stereo not drawn) | – | 35.5 µM [rising, single point]
11 | O=C1c2cccc3c(O)ccc(c23)C(=O)N1Cc1ccccc1 | 10 µM [falling, partial curve] | 7.94 µM [falling, partial curve]
12 | CCCN(Cc1nc(-c2ccc(Cl)cc2)no1)CC1CCCO1 (stereo not drawn) | 0.501 µM [rising, partial curve, poor fit] | –
13 | O=C(CC(=O)c1ccccc1O)c1cccc(F)c1 | 10 µM [rising, partial curve] | –
14 | CCn1cc(CN2CCN(CCc3ccccc3)C(CCO)C2)c(C)n1 (stereo not drawn) | 0.0178 µM [falling, full curve, poor fit] | –
15 | CC(C)NC(=O)CCn1nc(-c2ccc(Cl)cc2)c2ccccc2c1=O | 0.0631 µM [rising, full curve, poor fit] | 0.112 µM [rising, full curve]
16 | Cc1ccnc(N2C(=O)c3cccc4c([N+](=O)[O-])ccc(c34)C2=O)c1 | 35.5 µM [falling, single point] | 31.6 µM [falling, single point]
17 | CC(C)C(=O)NC(=S)Nc1ccc(S(=O)(=O)N(C)Cc2ccccc2)cc1 | 20 µM [rising, single point] | –
18 | Cc1ccc(-c2noc(CCC(=O)NCCN3CCN(Cc4ccccc4)CC3)n2)cc1 | 14.1 µM [rising, single point] | 11.2 µM [rising, single point]

Row | SMILES | AC50 [1] | AC50 [2]
19 | O=Cc1ccnc(-c2ccc(OC(=O)c3ccco3)cc2)n1 | – | 0.0447 µM [falling, full curve, poor fit]
20 | Cc1ccc(S(=O)(=O)NCCC(c2ccccc2)c2ccccc2)cc1C(=O)O | 0.00316 µM [falling, full curve, poor fit] | –
21 | O=C(Nc1ccc(F)cc1)c1nn(-c2ccccc2)c(=O)cc1Cl | 0.708 µM [falling, single point] | 17.8 µM [falling, single point]
22 | O=C(Nc1ccc(S(=O)(=O)Nc2ccc(Cl)cc2)cc1)C1CCCO1 (stereo not drawn) | 11.2 µM [rising, partial curve] | –
23 | CCc1nc(Nc2ccncc2)c2oc3ccccc3c2n1 | 11.2 µM [rising, partial curve] | –
24 | CCC1(c2cccc(Cl)c2)NC(=O)N(Cc2cc(C(=O)OC)c(C)o2)C1=O (stereo not drawn) | 22.4 µM [rising, single point] | –
25 | O=[N+]([O-])c1ccc(Sc2n[nH]c(-c3ccco3)n2)nc1 | – | 0.0501 µM [rising, partial curve, poor fit]
26 | CCOC(=O)C1CCCN(S(=O)(=O)c2cc(OCC(=O)NC3CCCCC3)c(C)cc2Cl)C1 (stereo not drawn) | 35.5 µM [rising, single point] | –
27 | CCc1ccc(CNc2ccc3c(c2)ncn3C)cc1 | 15.8 µM [rising, partial curve] | 12.6 µM [rising, partial curve]
28 | CC1CCN(C(=O)CSc2ccc(-c3ccc(F)cc3)nn2)CC1 | 35.5 µM [rising, single point] | 25.1 µM [rising, single point]
29 | Cc1ccc(C(=O)c2cc([N+](=O)[O-])ccc2N2CCCCC2)c(C)c1 | – | 0.224 µM [falling, full curve, poor fit]
30 | CC(Cc1ccccc1)C(=O)N(C)Cc1cccnc1 (stereo not drawn) | 0.398 µM [rising, full curve] | –
31 | COc1cc(NS(=O)(=O)c2ccc(N/C=C(\C=O)c3nc4cc(Cl)ccc4o3)cc2)nc(OC)n1 | – | 1.78 µM [rising, partial curve, poor fit]
32 | CCOC(=O)c1ccc(NC(=O)c2c(NCc3sccc3C)sc3c2CCCCC3)cc1 | 25.1 µM [rising, partial curve, poor fit] | 7.08 µM [rising, partial curve]
33 | Cc1ccc(NS(=O)(=O)c2cc([N+](=O)[O-])ccc2NNC(=S)Nc2cccc(Cl)c2)c(C)c1 | 35.5 µM [rising, single point] | 15.8 µM [falling, partial curve]
34 | COc1cc(/C=c2\sc3n(c2=O)C(c2ccccc2)C(c2ccccc2)=NN=3)ccc1O (stereo not drawn) | 10 µM [rising, partial curve, poor fit] | –
35 | COc1ccc(Cn2nnnc2C(C(C)C)N(Cc2ccco2)Cc2cccs2)cc1 (stereo not drawn) | 35.5 µM [rising, single point] | 28.2 µM [rising, partial curve]

Two entries from above, as tab-separated lines.
Row	SMILES	AC50 [1]	AC50 [2]
29	Cc1ccc(C(=O)c2cc([N+](=O)[O-])ccc2N2CCCCC2)c(C)c1	–	0.224 µM [falling, full curve, poor fit]
30	CC(Cc1ccccc1)C(=O)N(C)Cc1cccnc1 (stereo not drawn)	0.398 µM [rising, full curve]	–
